For 2 molecules, binding results are on record in paper doi:10.1101/424556.

Amino acid sequences for entries named in this document (tags omitted). A change or cut given only in a name is not applied to a line headed by its entry.
UniProt O15516: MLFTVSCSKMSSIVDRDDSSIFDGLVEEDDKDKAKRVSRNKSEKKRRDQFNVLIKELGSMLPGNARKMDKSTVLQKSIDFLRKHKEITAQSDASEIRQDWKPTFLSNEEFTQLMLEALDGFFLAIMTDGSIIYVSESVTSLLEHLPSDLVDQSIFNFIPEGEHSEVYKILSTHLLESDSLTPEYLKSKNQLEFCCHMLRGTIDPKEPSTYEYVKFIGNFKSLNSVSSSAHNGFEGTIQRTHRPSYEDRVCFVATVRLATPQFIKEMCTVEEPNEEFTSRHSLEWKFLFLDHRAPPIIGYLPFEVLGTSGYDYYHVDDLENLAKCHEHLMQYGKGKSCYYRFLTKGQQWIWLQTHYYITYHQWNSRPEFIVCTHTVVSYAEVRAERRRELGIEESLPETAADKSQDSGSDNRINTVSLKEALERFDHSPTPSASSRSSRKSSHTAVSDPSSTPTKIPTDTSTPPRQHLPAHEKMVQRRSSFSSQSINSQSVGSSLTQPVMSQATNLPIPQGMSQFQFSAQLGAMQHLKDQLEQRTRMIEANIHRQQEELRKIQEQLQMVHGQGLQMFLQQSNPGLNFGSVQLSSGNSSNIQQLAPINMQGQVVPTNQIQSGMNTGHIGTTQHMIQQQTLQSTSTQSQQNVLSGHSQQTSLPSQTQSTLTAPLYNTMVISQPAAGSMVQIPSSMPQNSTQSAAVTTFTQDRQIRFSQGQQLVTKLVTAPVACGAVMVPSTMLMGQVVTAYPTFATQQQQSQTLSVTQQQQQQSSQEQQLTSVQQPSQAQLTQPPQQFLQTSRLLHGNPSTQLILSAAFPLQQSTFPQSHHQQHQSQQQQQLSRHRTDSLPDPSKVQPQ
UniProt O00327: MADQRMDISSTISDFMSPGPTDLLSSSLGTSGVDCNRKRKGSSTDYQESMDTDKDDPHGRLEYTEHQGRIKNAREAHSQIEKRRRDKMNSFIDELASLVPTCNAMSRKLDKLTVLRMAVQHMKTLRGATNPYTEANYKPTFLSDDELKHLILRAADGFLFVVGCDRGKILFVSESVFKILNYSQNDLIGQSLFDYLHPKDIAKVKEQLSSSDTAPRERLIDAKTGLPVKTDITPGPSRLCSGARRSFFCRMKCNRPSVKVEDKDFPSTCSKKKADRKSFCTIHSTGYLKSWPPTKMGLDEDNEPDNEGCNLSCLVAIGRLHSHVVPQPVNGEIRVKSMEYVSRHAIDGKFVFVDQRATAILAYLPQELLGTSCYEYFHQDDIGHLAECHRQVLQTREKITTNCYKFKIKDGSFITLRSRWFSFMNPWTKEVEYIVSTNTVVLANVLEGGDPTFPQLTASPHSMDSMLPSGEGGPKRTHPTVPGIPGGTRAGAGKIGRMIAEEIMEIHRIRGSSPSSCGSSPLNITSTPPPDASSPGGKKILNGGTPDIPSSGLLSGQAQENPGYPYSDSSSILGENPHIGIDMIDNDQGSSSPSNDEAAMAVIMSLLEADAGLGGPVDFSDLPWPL

These are yes or no findings as the source states them, for the method shown. In cells and extracts the contact can be indirect. Some results given as binding are weak or reduced against the parent protein; the word gives no strength.

What all share (assay): co-IP
For one assay, the target named is CLOCK:BMAL1 heterodimer (UniProt O15516).
The target of assay [1] is T1, CRY1, endogenous in HepG2 (human (endogenous in HepG2)) (UniProt Q16526).
T1 sequence: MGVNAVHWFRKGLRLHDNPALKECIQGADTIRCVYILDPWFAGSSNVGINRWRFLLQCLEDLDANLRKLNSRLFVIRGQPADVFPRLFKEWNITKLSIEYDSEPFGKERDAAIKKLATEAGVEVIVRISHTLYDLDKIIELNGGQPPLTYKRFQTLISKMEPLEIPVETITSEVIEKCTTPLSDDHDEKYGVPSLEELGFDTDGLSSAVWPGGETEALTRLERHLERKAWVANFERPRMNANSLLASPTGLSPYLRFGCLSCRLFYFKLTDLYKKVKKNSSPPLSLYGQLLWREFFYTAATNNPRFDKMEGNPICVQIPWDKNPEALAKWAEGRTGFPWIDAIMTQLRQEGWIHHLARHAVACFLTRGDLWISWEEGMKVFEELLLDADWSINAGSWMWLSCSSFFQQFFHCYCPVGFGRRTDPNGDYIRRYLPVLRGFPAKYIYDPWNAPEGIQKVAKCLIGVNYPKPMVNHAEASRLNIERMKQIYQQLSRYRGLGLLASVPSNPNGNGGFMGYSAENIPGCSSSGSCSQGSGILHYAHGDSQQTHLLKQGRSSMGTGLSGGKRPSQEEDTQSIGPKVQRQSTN

Assay [2] concerns the target BMAL1, endogenous in HepG2 (human (endogenous in HepG2)) (UniProt O00327).

B1: HNF4A (hepatocyte nuclear factor 4A), transiently expressed (protein, UniProt P41235 1-474)
chain: MRLSKTLVDMDMADYSAALDPAYTTLEFENVQVLTMGNDTSPSEGTNLNAPNSLGVSALCAICGDRATGKHYGASSCDGCKGFFRRSVRKNHMYSCRFSRQCVVDKDKRNQCRYCRLKKCFRAGMKKEAVQNERDRISTRRSSYEDSSLPSINALLQAEVLSRQITSPVSGINGDIRAKKIASIADVCESMKEQLLVLVEWAKYIPAFCELPLDDQVALLRAHAGEHLLLGATKRSMVFKDVLLLGNDYIVPRHCPELAEMSRVSIRILDELVLPFQELQIDDNEYAYLKAIIFFDPDAKGLSDPGKIKRLRSQVQVSLEDYINDRQYDSRGRFGELLLLLPTLQSITWQMIEQIQFIKLFGMAKIDNLLQEMLLGGSPSDAPHAHHPLHPHLMQEHMGTNVIVANTMPTHLSNGQMCEWPRPRGQAATPETPQPSPPGGSGSEPYKLLPGAVATIVKPLSAIPQPTITKQEVI
In the case of B1, the binding entry in the assay with CLOCK:BMAL1 heterodimer is on record as “binds”.

B2: HNF4A, endogenous in HepG2 (protein, UniProt P41235 1-474)
chain: MRLSKTLVDMDMADYSAALDPAYTTLEFENVQVLTMGNDTSPSEGTNLNAPNSLGVSALCAICGDRATGKHYGASSCDGCKGFFRRSVRKNHMYSCRFSRQCVVDKDKRNQCRYCRLKKCFRAGMKKEAVQNERDRISTRRSSYEDSSLPSINALLQAEVLSRQITSPVSGINGDIRAKKIASIADVCESMKEQLLVLVEWAKYIPAFCELPLDDQVALLRAHAGEHLLLGATKRSMVFKDVLLLGNDYIVPRHCPELAEMSRVSIRILDELVLPFQELQIDDNEYAYLKAIIFFDPDAKGLSDPGKIKRLRSQVQVSLEDYINDRQYDSRGRFGELLLLLPTLQSITWQMIEQIQFIKLFGMAKIDNLLQEMLLGGSPSDAPHAHHPLHPHLMQEHMGTNVIVANTMPTHLSNGQMCEWPRPRGQAATPETPQPSPPGGSGSEPYKLLPGAVATIVKPLSAIPQPTITKQEVI
Turning to B2, the binding entry in assay [1] and in assay [2] was “binds” in each case.
